Results taken from PubChem BioAssay AID2685 (National Center for Advancing Translational Sciences (NCATS), 2010).
Some of the results follow. The main result of the screen is listed elsewhere. These columns were measured beside it and carry no call. Most of these compounds were active or inconclusive in the main read-out, so they are no random draw. Potencies come from curve fits of mixed quality, noted in brackets.

Assay: qHTS Assay for Lipid Storage Modulators in Drosophila S3 Cells;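 on cell number change: cells counted by Cell Tracker Red CMTPX staining in the red channel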
Settings: BODIPY lipid droplet fluorescence, 18-24 h; for cell number change: measured here: cell count max response, cells fed with added oleic acid
In short: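 Laser-scanning cytometry quantifies lipid droplet accumulation (500–530 nm total intensity; droplet/cell object ratio) in oleic acid-fed (400 uM added) Drosophila S3 cells treated with a concentration series. 20 uM Triacsin C defined 100% inhibition.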

[1] = measured here: lipid fluorescence (Fed channel) AC50, cells fed with added oleic acid
[2] = measured here: cell number channel AC50, cells fed with added oleic acid

Structure (SMILES) | cell number change [%] | AC50 [1] | AC50 [2]
CSc1ccccc1OCc1cc(C(=O)NCCN2CCCC(O)C2)no1 (stereo not given) | 16.8 | 6.51 µM [rising, partial curve] | –
COc1ccc(OC)c(NC(=O)CSc2nc(N3CCOCC3)nc(N3CCOCC3)n2)c1 | 37.7 | 20.6 µM [rising, partial curve] | 9.2 µM [rising, partial curve, poor fit]
CCCCOc1ccc(C(=O)C(CN2CCOCC2)c2ccccc2)cc1 (stereo not given) | -34.6 | 29.1 µM [falling, single point] | 29.1 µM [falling, single point]
COc1cccc2c1OCC/C2=N\NC(=O)COc1ccccc1C | -36.3 | 7.31 µM [falling, single point] | 29.1 µM [falling, single point]
O=C(Nc1ccc(Cl)cc1)Nc1ccc2c(c1)N1CCN=C1S2 | -14.7 | 0.13 µM [rising, partial curve, poor fit] | –
CCCCc1cc(=O)oc2c(C)c(OCC(=O)NCCN3CCOCC3)ccc12 | – | 4.11 µM [falling, full curve] | –
CCCCn1c(N)c(N(CCOC)C(=O)C(C)Oc2ccc(Cl)cc2)c(=O)[nH]c1=O (stereo not given) | -97.2 | 29.1 µM [falling, single point] | 29.1 µM [falling, single point]
O=[N+]([O-])c1ccccc1/C=N/n1c(C(F)(F)F)n[nH]c1=S | -45.9 | 0.731 µM [falling, single point] | 0.731 µM [falling, full curve]
CCCCn1c(N)c(N(CCOC)C(=O)COc2ccc(OCC)cc2)c(=O)[nH]c1=O | 5.32 | – | –
NC(=O)CN(c1ccc(Oc2ccccc2)cc1)S(=O)(=O)c1ccccc1 | -2.05 | – | –
C=CCOc1ccc(-c2nc3c(c(=O)[nH]c(=O)n3CCC)n2CCCC)cc1 | – | 4.11 µM [falling, full curve] | –
O=C(OCc1cn(-c2ccc(Cl)cc2)nn1)c1ccccc1 | 23.4 | – | –
N#CC1(NC(=O)CSc2nnc(Cc3ccccc3)o2)CCCCC1 | -13.1 | 20.6 µM [falling, partial curve, poor fit] | –
CCOc1ccccc1NC(=O)C(=O)N/N=C/c1ccc([N+](=O)[O-])cc1 | 34.9 | 20.6 µM [rising, partial curve] | 10.3 µM [rising, partial curve, poor fit]
CCOc1ccc(C(=O)NCC(=O)N2CCCCCCC2)cc1 | -4.27 | 0.00411 µM [rising, full curve, poor fit] | –
O=C1c2sc3nc4c(c(=O)n3c2C(=O)N1c1ccccc1)CCC4 | -7.45 | 29.1 µM [rising, single point] | –
CCOC(=O)C1(Cc2cccc(Cl)c2)CCCN(C(=O)c2c(CC)noc2C)C1 (stereo not given) | -8.02 | – | –
CC(C)CCn1c(=O)[nH]c2ccccc21 | 54.9 | 14.6 µM [rising, partial curve] | 13 µM [rising, partial curve]
CC(/C=N/NC(=O)c1n[nH]c2c1CCC2)=C\c1ccccc1 | -53.7 | 23.1 µM [falling, single point] | 29.1 µM [falling, single point]

Structure (SMILES) | cell number change [%] | AC50 [1] | AC50 [2]
O=C(CN1CCN(S(=O)(=O)c2ccc(Br)cc2)CC1)N/N=C/c1ccc(Cl)c([N+](=O)[O-])c1 | 7.3 | 18.4 µM [falling, partial curve, poor fit] | –
Cc1cc(C)n(/N=C/c2ccccc2O)c(=O)c1 | -7.01 | – | 0.58 µM [falling, single point]
COc1ccc(Cl)cc1S(=O)(=O)n1cnc2ccccc21 | – | 1.03 µM [rising, full curve, poor fit] | –
COc1ccc(C(=O)C2CCCN(C(=O)c3ccc(F)cc3)C2)cc1OC (stereo not given) | 14.7 | 0.517 µM [rising, partial curve, poor fit] | –
Cc1cc(CNC(=O)COc2ccc(C#N)cc2)c2ccccc2n1 | -24.3 | 29.1 µM [falling, single point] | –
Cc1ccc(NS(=O)(=O)c2ccc(Br)s2)cc1S(=O)(=O)N1CCOCC1 | -40.2 | 0.00461 µM [falling, full curve, poor fit] | –
COc1ccc(Cl)cc1C(=O)Nc1cccnc1Cl | 9.06 | 0.58 µM [rising, single point] | –
O=C(NCc1ccc(Cl)cc1)C1CCN(C(=O)c2ccco2)CC1 | -15.4 | – | –
CC1=CC(C)(C)N(C)C(=O)N1c1ccc(Cl)cc1 | 2.69 | 18.4 µM [rising, single point] | –
c1ccc(-c2ccccc2OCCOCCN2CCc3ccccc3C2)cc1 | -27.9 | – | –
CC1=C(C)CC(C(=O)NCc2cccc(Cl)c2)C(C(=O)O)C1 (stereo not given) | 7.41 | – | –
COCC(C)n1c(SCC(=O)Nc2nccs2)nc2ccccc2c1=O (stereo not given) | -7.52 | 0.82 µM [falling, single point] | –
CCCCn1c(N)c(N(CC)C(=O)C2=NN(c3ccccc3)C(=O)CC2)c(=O)[nH]c1=O | -2.38 | 2.59 µM [falling, partial curve] | 0.366 µM [falling, full curve, poor fit]
CC(C)CC(=O)/C(=C\c1ccc(Cl)cc1Cl)n1cncn1 | -69 | 9.2 µM [falling, partial curve] | 18.4 µM [falling, partial curve]
COCCN(C(=O)Cc1cccs1)c1nnc(-c2ccncc2)s1 | 19.5 | 0.731 µM [rising, single point] | –
CC(C)c1ccc(S(=O)(=O)/N=C2/C=CC(=O)c3ccccc32)cc1 | 5.08 | 2.06 µM [falling, single point] | 6.51 µM [falling, single point]
O=C(OCC(=O)N1CCCC1)c1cc(Br)ccc1Cl | 3.94 | 3.26 µM [falling, partial curve] | –
CCOc1ccccc1C(=O)NCC(=O)OCCOc1cccc(Cl)c1 | 8.42 | 0.58 µM [falling, single point] | –

Entries listed so far containing bromine, in the order listed:
Structure (SMILES) | cell number change [%] | AC50 [1] | AC50 [2]
O=C(CN1CCN(S(=O)(=O)c2ccc(Br)cc2)CC1)N/N=C/c1ccc(Cl)c([N+](=O)[O-])c1 | 7.3 | 18.4 µM [falling, partial curve, poor fit] | –
Cc1ccc(NS(=O)(=O)c2ccc(Br)s2)cc1S(=O)(=O)N1CCOCC1 | -40.2 | 0.00461 µM [falling, full curve, poor fit] | –
O=C(OCC(=O)N1CCCC1)c1cc(Br)ccc1Cl | 3.94 | 3.26 µM [falling, partial curve] | –
